# Data: PubChem BioAssay AID1259354 (Paczesny and Yang Labs, IUPUI and University of Michigan, 2018)
# Amino acid sequences for entries named in this document (tags omitted). A change or cut given only in a name is not applied to a line headed by its entry.
# UniProt Q01638: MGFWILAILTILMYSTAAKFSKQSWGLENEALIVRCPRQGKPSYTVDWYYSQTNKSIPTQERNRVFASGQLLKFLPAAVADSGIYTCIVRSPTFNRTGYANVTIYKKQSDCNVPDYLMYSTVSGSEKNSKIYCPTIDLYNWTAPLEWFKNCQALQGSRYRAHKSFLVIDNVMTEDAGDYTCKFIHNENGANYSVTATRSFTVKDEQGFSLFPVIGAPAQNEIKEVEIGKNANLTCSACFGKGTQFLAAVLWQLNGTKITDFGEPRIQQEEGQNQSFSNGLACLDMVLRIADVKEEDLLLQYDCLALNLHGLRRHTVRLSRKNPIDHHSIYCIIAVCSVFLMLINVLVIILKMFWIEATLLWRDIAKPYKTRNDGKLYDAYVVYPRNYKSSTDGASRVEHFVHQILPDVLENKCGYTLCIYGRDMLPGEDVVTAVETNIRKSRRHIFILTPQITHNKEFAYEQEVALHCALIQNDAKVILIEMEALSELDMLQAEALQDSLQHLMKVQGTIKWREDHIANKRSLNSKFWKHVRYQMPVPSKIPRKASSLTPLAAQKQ
# The campaign covered roughly 78,000 compounds. About 1,800 (2.3%) were called active. This list was built around the results that the source calls inconclusive (neither active nor inactive); the mix of calls is not that of the screen. No stated cut-off is given here; in the data, active means inhibition above about 30%; inconclusive means mostly about 10% to 28%; inactive means weaker than that.
# Target: Interleukin-1 receptor-like 1 (Homo sapiens) (UniProt Q01638)
# Test: inhibitors of human ST2 (IL1RL1) binding to IL-33, primary screen, biochemical, AlphaLISA (AID 1259354)
# Conditions: AlphaLISA ST2-Fc/biotin-IL-33 interaction, 1 h; at 17 µM, stronger effect = higher value
row,SMILES,inhibition
1,O=S1(=O)C=CC(NC2CCC3(CCNCC3)CC2)C1 (configuration not stated),inconclusive: 16%
2,CC(=O)NCCNC(=O)[C@H]1CN2CCC1C[C@@H]2Cn1cc(-c2cccc(N)c2)nn1 (some centres not stated),inactive
3,O=C(CC1CCOCC1)N1[C@H]2CCNC[C@@H]1CC2,inconclusive: 18%
4,CCOc1cc(CN2CCN(c3ccccc3)CC2)ccc1OC,inconclusive: 18%
5,O=C(O)CC[N+](=O)[O-],inconclusive: 15%
6,CN(C)Cc1ccccc1-c1ccc2n(c1=O)C[C@H]1C[C@@H]2CN(C(=O)c2ccco2)C1,inconclusive: 16%
7,O=[N+]([O-])c1ccc(NCCCN2CCOCC2)c2ncccc12,inconclusive: 13%
8,O=C(NCCCNc1ccc([N+](=O)[O-])c2cccnc12)c1cc(F)c(F)cc1Cl,inconclusive: 20%
9,CC(=O)c1ccc(NC(=O)NC[C@H]2C[C@@H]3CCN2C[C@@H]3CN2CCN(c3ncccn3)CC2)cc1,inconclusive: 11%
10,CCOc1cc(CN2CCN(c3ccccc3Cl)CC2)ccc1O,inconclusive: 12%
11,COc1ccccc1N1CCN(C(=O)[C@H]2CN3CCC2C[C@@H]3Cn2cc(-c3ccccc3)nn2)CC1 (some centres not stated),inconclusive: 13%
12,COc1ccccc1N1CCN(C(=O)[C@H]2CN3CCC2C[C@@H]3Cn2cc(COc3ccccc3)nn2)CC1 (some centres not stated),inactive
13,C[C@@H]1O[C@@H](O[C@H]2C[C@@H](O)[C@]3(CO)[C@@H]4C(CC[C@]3(O)C2)[C@@]2(O)CC[C@H]([C@@H]3COC(=O)C3)[C@@]2(C)C[C@H]4O)[C@H](O)[C@H](O)[C@H]1O (some centres not stated),inconclusive: 19%
14,CSc1ccc(-c2ccc3n(c2=O)C[C@H]2C[C@@H]3CN(Cc3cccs3)C2)cc1,inconclusive: 14%
15,COc1ccc(-c2cc([C@H]3CN4CC[C@H]3C[C@@H]4CNC(=O)c3cccs3)n(C)n2)cc1,inconclusive: 18%
16,CSc1cccc(NC(=O)NC[C@H]2C[C@@H]3CCN2C[C@@H]3CN2CCN(c3ccc(F)cc3)CC2)c1,inconclusive: 12%
17,COc1ccccc1-c1cc([C@H]2CN3CC[C@H]2C[C@@H]3CNC(=O)Nc2ccccc2)n(C)n1,inconclusive: 29%
18,COc1ccc(-c2cn(C[C@H]3CC4CCN3C[C@@H]4C(=O)NCCNC(C)=O)nn2)cc1 (some centres not stated),inconclusive: 17%
19,CN(C)CC(=O)Nc1ccc2n(c1=O)C[C@H]1C[C@@H]2CN(Cc2ccccn2)C1,inconclusive: 17%
20,CC/C(=C\c1ccc(F)cc1)[N+](=O)[O-],inconclusive: 25%
21,COc1ccccc1CN1CCN(c2ccccc2Cl)CC1,inconclusive: 14%
22,O=C(Nc1ccc2n(c1=O)C[C@H]1C[C@@H]2CN(C(=O)c2ccccc2)C1)NC1CCCCC1,inconclusive: 14%

row,SMILES,inhibition
1,O=[N+]([O-])/C=C/c1ccccc1OCc1ccc(Br)cc1,inconclusive: 25%
2,COc1cccc([C@@H]2CCN(CCC(C)(C)C)C[C@H]2O)c1,inconclusive: 16%
3,Cc1ccccc1N1CCN(Cc2cccc(F)c2)CC1,inconclusive: 11%
4,O=C(c1ccco1)N1C[C@@H]2C[C@H](C1)c1ccc(-c3cccnc3)c(=O)n1C2,inactive
5,Cc1ccc(NC2=NCC(C)S2)cc1 (configuration not stated),inconclusive: 15%
6,COc1ccc(-c2cn(C[C@H]3C[C@@H]4CCN3C[C@@H]4C(=O)N3CCOCC3)nn2)cc1,inconclusive: 14%
7,N#CC(C#N)=Cc1cc(O)c(O)c(O)c1,inconclusive: 13%
8,Cc1ccccc1-n1c(Cc2ccccc2)nc2ccccc2c1=O,inactive
9,Brc1ccc(CN2CCN(Cc3ccc4c(c3)OCO4)CC2)cc1,inconclusive: 10%
10,COc1cccc(N2CCN(Cc3ccccc3F)CC2)c1,inconclusive: 22%
11,CCN1CCN(Cc2cccc(F)c2)CC1,inconclusive: 17%
12,Cc1ccccc1Cc1c(C)nc2nc(SCC(=O)N3CCC4(CC3)OCCO4)nn2c1C,inconclusive: 20%
13,CCOc1ccc(CN2CCN(c3ccccc3C)CC2)cc1,inactive
14,CN1CCN(Cc2cccc(Cl)c2Cl)CC1,inactive
15,COc1ccc(N2CCN(Cc3ccc(OC)c(C)c3)CC2)cc1,active: 36%
16,O=C1C=CC(O)(CC(=O)OC[C@H]2O[C@@H](OC(=O)CC3(O)C=CC(=O)C=C3)[C@H](OC(=O)Cc3ccccc3)[C@@H](O)[C@@H]2O)C=C1,inconclusive: 17%
17,COc1ccccc1N1CCN(Cc2ccc(F)c(Br)c2)CC1,inconclusive: 20%
18,O=C1NC(=O)C(Cc2ccc(F)cc2)C(=O)N1,inconclusive: 14%
19,O=C(C1CCCCC1)N1C[C@@H]2C[C@H](C1)c1c(-c3ccc(Cl)cc3)ccc(=O)n1C2,inconclusive: 18%
20,CCCCCC/C=C\CCCCCCCc1cccc(O)c1O,inactive
21,O=C(NC[C@H]1C[C@@H]2CCN1C[C@@H]2CN1CCC(Cc2ccccc2)CC1)c1ccccc1,inactive
22,COc1ccc(CN2CCN(c3ccccc3)CC2)cc1C,inconclusive: 13%

row,SMILES,inhibition
1,O=C(c1cn(-c2ccccc2)nn1)N1C[C@@H]2C[C@H](C1)c1cccc(=O)n1C2,inactive
2,Cc1nc(-c2cccs2)cc([C@H]2CN3CC[C@H]2C[C@@H]3CNC(=O)c2ccco2)n1,inconclusive: 11%
3,CC(C)c1cccc(C(C)C)c1O,inconclusive: 16%
4,COc1ccccc1C(=O)c1nc2ccccc2n1C(C)C,inactive
5,Cc1ccc(S(=O)(=O)NC[C@H]2C[C@@H]3CCN2C[C@@H]3CN(C)CCc2ccccn2)cc1,inconclusive: 11%
6,CC(=O)Nc1ccc(S(=O)(=O)NC[C@H]2C[C@@H]3CCN2C[C@@H]3c2cc(-c3ccc4ccccc4c3)nn2C)cc1,inactive
7,O=C1C2CCCN2C(c2cccc(Cl)c2)N1c1ccccn1 (configuration not stated),inactive
8,C=CCN(C)C(=O)[C@H]1CN2CCC1C[C@@H]2Cn1cc(C2(O)CCCCC2)nn1 (some centres not stated),inconclusive: 10%
9,Cc1ccccc1N1CCN(Cc2ccc(N(C)C)cc2)CC1,active: 45%
10,Cn1nc(-c2ccccc2)cc1[C@H]1CN2CC[C@H]1C[C@@H]2CNC(=O)c1cccs1,inconclusive: 12%
11,CC(C)(O)c1cn(C[C@H]2CC3CCN2C[C@@H]3C(=O)NCc2ccccc2)nn1 (some centres not stated),inconclusive: 11%
12,CC(c1c(O)c2ccccc2oc1=O)c1c(O)c2ccccc2oc1=O,active: 36%
13,COc1ccc(-c2cc([C@H]3CN4CC[C@H]3C[C@@H]4CNC(=O)NC3CCCCC3)n(C)n2)cc1OC,inactive
14,Cn1c(=O)cc(SCC(=O)N2CCC3(CC2)OCCO3)c2ccccc21,inconclusive: 14%
15,CC(C)(O)c1cn(C[C@H]2CC3CCN2C[C@@H]3C(=O)NCc2ccc3c(c2)OCO3)nn1 (some centres not stated),inconclusive: 16%
16,O=C(NC1CC1)[C@H]1CN2CC[C@H]1C[C@@H]2Cn1cc(CO)nn1,inconclusive: 10%
17,O=C(C1CCCCC1)N1C[C@@H]2C[C@H](C1)c1c(-c3cccs3)ccc(=O)n1C2,inconclusive: 14%
18,c1ccc2c(c1)OCC(C1=NCCN1)O2 (configuration not stated),inconclusive: 10%
19,C#C[C@H]1CN2CC[C@H]1C[C@@H]2CNS(=O)(=O)c1cccc(F)c1,inconclusive: 13%
20,CC(=O)Nc1cccc(NC(=O)c2cccn(Cc3ccccc3F)c2=O)c1,inconclusive: 13%
21,Cc1nc(C(C)C)ncc1C(=O)N1CCC2(CC1)NCCNC2=O,inconclusive: 14%
22,CN1C(=O)C2(CCN(Cc3ccc(-c4ccn[nH]4)o3)CC2)c2ccccc21,inactive

# Copied from the listing, 24 compounds:
row,SMILES,inhibition
2,CC(=O)NCCNC(=O)[C@H]1CN2CCC1C[C@@H]2Cn1cc(-c2cccc(N)c2)nn1 (some centres not stated),inactive
3,O=C(CC1CCOCC1)N1[C@H]2CCNC[C@@H]1CC2,inconclusive: 18%
4,CCOc1cc(CN2CCN(c3ccccc3)CC2)ccc1OC,inconclusive: 18%
5,O=C(O)CC[N+](=O)[O-],inconclusive: 15%
6,CN(C)Cc1ccccc1-c1ccc2n(c1=O)C[C@H]1C[C@@H]2CN(C(=O)c2ccco2)C1,inconclusive: 16%
7,O=[N+]([O-])c1ccc(NCCCN2CCOCC2)c2ncccc12,inconclusive: 13%
8,O=C(NCCCNc1ccc([N+](=O)[O-])c2cccnc12)c1cc(F)c(F)cc1Cl,inconclusive: 20%
9,CC(=O)c1ccc(NC(=O)NC[C@H]2C[C@@H]3CCN2C[C@@H]3CN2CCN(c3ncccn3)CC2)cc1,inconclusive: 11%
10,CCOc1cc(CN2CCN(c3ccccc3Cl)CC2)ccc1O,inconclusive: 12%
11,COc1ccccc1N1CCN(C(=O)[C@H]2CN3CCC2C[C@@H]3Cn2cc(-c3ccccc3)nn2)CC1 (some centres not stated),inconclusive: 13%
12,COc1ccccc1N1CCN(C(=O)[C@H]2CN3CCC2C[C@@H]3Cn2cc(COc3ccccc3)nn2)CC1 (some centres not stated),inactive
13,C[C@@H]1O[C@@H](O[C@H]2C[C@@H](O)[C@]3(CO)[C@@H]4C(CC[C@]3(O)C2)[C@@]2(O)CC[C@H]([C@@H]3COC(=O)C3)[C@@]2(C)C[C@H]4O)[C@H](O)[C@H](O)[C@H]1O (some centres not stated),inconclusive: 19%
14,CSc1ccc(-c2ccc3n(c2=O)C[C@H]2C[C@@H]3CN(Cc3cccs3)C2)cc1,inconclusive: 14%
15,COc1ccc(-c2cc([C@H]3CN4CC[C@H]3C[C@@H]4CNC(=O)c3cccs3)n(C)n2)cc1,inconclusive: 18%
16,CSc1cccc(NC(=O)NC[C@H]2C[C@@H]3CCN2C[C@@H]3CN2CCN(c3ccc(F)cc3)CC2)c1,inconclusive: 12%
17,COc1ccccc1-c1cc([C@H]2CN3CC[C@H]2C[C@@H]3CNC(=O)Nc2ccccc2)n(C)n1,inconclusive: 29%
18,COc1ccc(-c2cn(C[C@H]3CC4CCN3C[C@@H]4C(=O)NCCNC(C)=O)nn2)cc1 (some centres not stated),inconclusive: 17%
19,CN(C)CC(=O)Nc1ccc2n(c1=O)C[C@H]1C[C@@H]2CN(Cc2ccccn2)C1,inconclusive: 17%
20,CC/C(=C\c1ccc(F)cc1)[N+](=O)[O-],inconclusive: 25%
21,COc1ccccc1CN1CCN(c2ccccc2Cl)CC1,inconclusive: 14%
22,O=C(Nc1ccc2n(c1=O)C[C@H]1C[C@@H]2CN(C(=O)c2ccccc2)C1)NC1CCCCC1,inconclusive: 14%
1,O=[N+]([O-])/C=C/c1ccccc1OCc1ccc(Br)cc1,inconclusive: 25%
2,COc1cccc([C@@H]2CCN(CCC(C)(C)C)C[C@H]2O)c1,inconclusive: 16%
3,Cc1ccccc1N1CCN(Cc2cccc(F)c2)CC1,inconclusive: 11%

# Additional compounds:

row,SMILES,inhibition
1,COc1cc(C(=O)NC[C@H]2C[C@@H]3CCN2C[C@@H]3c2cc(-c3ccco3)nc(C)n2)cc(OC)c1OC,inactive
2,O=C(NCc1cccnc1)[C@H]1CN2CCC1C[C@@H]2Cn1cc(-c2ccc(-c3ccccc3)cc2)nn1 (some centres not stated),inconclusive: 15%
3,CCCN(CCC)[C@H]1CCc2c(F)ccc(O)c2C1,inconclusive: 15%
4,O=C(c1cnccn1)N1C[C@@H](c2cc(F)cc(F)c2)[C@@H]2[C@H]1C1CCN2CC1,inactive
5,S=C(NCc1ccco1)NC[C@H]1C[C@@H]2CCN1C[C@@H]2CN1CCCC1,inconclusive: 10%
6,S=C(NCc1ccco1)NC[C@H]1C[C@@H]2CCN1C[C@@H]2CN1CCSCC1,inactive
7,C=C[C@H]1CN2CC[C@H]1C[C@@H]2CNC(=S)Nc1ccc(F)cc1,inactive
8,Cn1cncc1-c1cccc2c1CCNC2,inactive
9,CC(C)SCC(=O)N1CCN2CCN(C)CC2C1 (configuration not stated),inconclusive: 12%
10,COc1ccccc1N1CCN(C(=O)[C@H]2CN3CCC2C[C@@H]3Cn2cc(CCO)nn2)CC1 (some centres not stated),inconclusive: 17%
11,COc1ccc(CN2CCN(c3ccc(F)cc3)CC2)c(OC)c1,inactive
12,CC[C@@H](CO)NC(=O)[C@@H]1C=C2c3cccc4c3c(cn4C)C[C@H]2N(C)C1,inconclusive: 12%
13,c1cn(CCc2cnc[nH]2)c(C2CCOC2)n1 (configuration not stated),inactive
14,CCOc1ccc(CN2CCN(c3cccc(C)c3C)CC2)cc1,inconclusive: 12%
15,COc1cc(CN2CCN(c3cccc(Cl)c3)CC2)cc(Br)c1O,inconclusive: 17%
16,Cc1nc(C2CCCC2)cc([C@H]2CN3CC[C@H]2C[C@@H]3CNC(=O)c2ccco2)n1,inconclusive: 16%
17,O=c1c2ccccc2nc(Cc2ccccc2)n1-c1ccccc1,inactive
18,CC(C)NC(=O)NC[C@H]1C[C@@H]2CCN1C[C@@H]2CN(C)CCc1ccccn1,inconclusive: 13%
19,N#Cc1c(Cl)c(Cl)nc(N2CCCNCC2)c1Cl,active: 43%
20,COc1ccc(-c2cc([C@H]3CN4CC[C@H]3C[C@@H]4CNC(=O)COc3ccccc3)n(C)n2)cc1,inconclusive: 11%
21,O=C(Nc1ccc2n(c1=O)C[C@H]1C[C@@H]2CN(CC2CCCCC2)C1)c1ccccc1,inconclusive: 17%
